PubChem BioAssay AID504764, Drosophila RNAi Screening Center | 2011

Test: 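Genes whose knock-down alters Notch-dependent transcription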 (primary screen)
Cell system: Drosophila Kc167 cells
Knock-down reagent: long dsRNA against Drosophila genes
Duration: about 5 days (4 days dsRNA, then 24 h after transfection)
Conditions: transfection of constitutively active membrane-tethered Notch lacking the extracellular domain, read 24 h later
Measured: 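Light from a Notch-responsive E(spl)m3 luciferase reporter under active Notch, with control-promoter and no-Notch reporter wells to normalise; raw counts from paired wells a and b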
Reading the numbers: induced reporter light, run 1, well a and induced reporter light, run 1, well b: higher = more light from the Notch target reporter with active Notch; control promoter light, run 1, well a and control promoter light, run 1, well b: higher = more light from the viral control promoter (cell number, transfection, viability); uninduced reporter light, run 1, well a: higher = more light from the Notch target reporter without active Notch
Hit rule: 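Hit if the duplicate-averaged log2 ratio of induced to control-promoter light gives a plate-wise z beyond ±2, or induced to uninduced beyond ±1.8; weak-control or discordant-duplicate wells dropped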
Calls: active = modifier hit (raised or lowered Notch signal); inactive = not a hit
In all, the deposit lists about 22,000 reagents; shown is a random part of those that have a named target and a result. Over the whole deposit, 403 (1.9%) got an active call. 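Unnormalised raw counts per well; ratio z-scores behind the hit calls and whether each hit raises or lowers signal are not deposited.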 Reagents against one gene are numbered here. Names joined by + are all predicted targets of the reagent. Not stated in the record: the amount of reagent.

| target gene | reagent | induced reporter light, run 1, well a | induced reporter light, run 1, well b | control promoter light, run 1, well a | control promoter light, run 1, well b | uninduced reporter light, run 1, well a | call |
| --- | --- | --- | --- | --- | --- | --- | --- |
| Ucp4A (Uncoupling protein 4A) | 1 | 61885 | 54505 | 57470 | 51040 | 7100 | inactive |
| CG14205 | 1 | 1.10e5 | 1.20e5 | 1.26e5 | 1.16e5 | 13270 | inactive |
| Ugt36F1 (UDP-glycosyltransferase family 36 member F1) | 1 | 47650 | 39340 | 48400 | 40240 | 3575 | inactive |
| Or98b (Odorant receptor 98b) | 1 | 1.63e5 | 1.73e5 | 2.10e5 | 1.89e5 | 15045 | inactive |
| Or98b (Odorant receptor 98b) | 2 | – | – | – | – | – | inactive |
| gom (gomdanji) | 1 | 28535 | 27855 | 25420 | 22795 | 1945 | inactive |
| mTerf5 (mitochondrial transcription termination factor 5) | 1 | 2.13e5 | 2.25e5 | 2.05e5 | 2.04e5 | 15500 | inactive |
| Uch (Ubiquitin carboxy-terminal hydrolase) | 1 | 1.93e5 | 1.64e5 | 2.24e5 | 1.99e5 | 17900 | inactive |
| Unr (Upstream of N-ras) | 1 | 61195 | 47740 | 38595 | 10365 | 3690 | inactive |
| mahe (maheshvara) | 1 | 1.76e5 | 1.65e5 | 2.31e5 | 2.21e5 | 12865 | inactive |
| CG34423 + Mthfs | 1 | 2.09e5 | 1.87e5 | 1.73e5 | 1.62e5 | 15060 | inactive |
| Try29F (Trypsin 29F) | 1 | 1.58e5 | 1.39e5 | 88030 | 1.12e5 | 21920 | inactive |
| Cpr30B (Cuticular protein 30B) | 1 | 1.37e5 | 1.61e5 | 95140 | 1.08e5 | 22565 | inactive |
| CG14540 | 1 | 77700 | 70185 | 79395 | 78665 | 7990 | inactive |
| Arp8 (Actin-related protein 8) | 1 | 1.87e5 | 1.33e5 | 1.03e5 | 79120 | 9110 | inactive |
| CG3104 | 1 | 1.27e5 | 1.33e5 | 1.34e5 | 1.24e5 | 9635 | inactive |
| Ptip (PAX transcription activation domain interacting protein) | 1 | 2.50e5 | 2.14e5 | 3.01e5 | 2.41e5 | 4340 | inactive |
| Ptip (PAX transcription activation domain interacting protein) | 2 | 1.15e5 | 85205 | 80735 | 70900 | 7025 | inactive |
| Eig71Ei | 1 | 1.53e5 | 1.59e5 | 1.77e5 | 1.72e5 | 7470 | inactive |
| CG5539 | 1 | 2.45e5 | 2.07e5 | 2.30e5 | 2.26e5 | 15955 | inactive |
| CG14257 | 1 | 1.57e5 | 1.39e5 | 1.63e5 | 1.81e5 | 11015 | inactive |
| CG10948 | 1 | 1.80e5 | 2.00e5 | 2.39e5 | 2.05e5 | 10145 | inactive |
| CG7766 | 1 | 1.34e5 | 1.29e5 | 1.42e5 | 1.23e5 | 9632 | inactive |
| BI-1 (Bax Inhibitor-1) | 1 | 96885 | 83290 | 70300 | 20955 | 7495 | inactive |
| ics (icarus) | 1 | 2.27e5 | 2.67e5 | 1.98e5 | 2.22e5 | 17590 | inactive |
| Prestin | 1 | 1.26e5 | 1.85e5 | 2.07e5 | 1.84e5 | 7585 | inactive |
| MCU (Mitochondrial calcium uniporter) | 1 | 2.23e5 | 1.58e5 | 2.50e5 | 1.62e5 | 12428 | inactive |
| Or65c (Odorant receptor 65c) | 1 | – | – | – | – | – | inactive |
| galla-2 | 1 | 1.42e5 | 1.15e5 | 1.49e5 | 1.74e5 | 6392 | inactive |
| Pcd (pterin-4a-carbinolamine dehydratase) | 1 | 1.19e5 | 1.04e5 | 1.33e5 | 1.49e5 | 10332 | inactive |
| CG18649 | 1 | 68655 | 92730 | 90285 | 84260 | 8685 | inactive |
| Lcp65Aa | 1 | 2.16e5 | 1.71e5 | 2.05e5 | 1.55e5 | 9032 | inactive |
| Ack-like (Activated Cdc42 kinase-like) | 1 | 1.46e5 | 1.57e5 | 1.52e5 | 1.40e5 | 13120 | inactive |
| CG44153 | 1 | 2.09e5 | 2.18e5 | 2.04e5 | 1.59e5 | 14815 | inactive |
| CG44153 | 2 | 1.50e5 | 1.56e5 | 81440 | 97625 | 21755 | inactive |
| CG44153 | 3 | 1.20e5 | 1.38e5 | 90385 | 1.12e5 | 18585 | inactive |
| CG44153 | 4 | 1.28e5 | 1.48e5 | 89755 | 1.08e5 | 20000 | inactive |
| Cyp28a5 (Cytochrome P450 28a5) | 1 | 2.87e5 | 3.29e5 | 2.96e5 | 2.99e5 | 23820 | inactive |
| flip (flippy) | 1 | 65095 | 50650 | 47700 | 33485 | 4085 | inactive |
| CG6294 + CG6299 | 1 | 71060 | 63700 | 71315 | 73590 | 9870 | inactive |
| CG6479 | 1 | 87570 | 1.11e5 | 58800 | 90040 | 8215 | inactive |
| Gss1 + Gss2 | 1 | 1.21e5 | 1.09e5 | 1.09e5 | 1.08e5 | 13340 | inactive |
| Gss1 + Gss2 | 2 | – | – | – | – | – | inactive |
| Ns4 (Nucleostemin 4) | 1 | 2.49e5 | 2.21e5 | 2.42e5 | 2.75e5 | 18080 | inactive |
| CG10991 (retired record) | 1 | 1.11e5 | 1.19e5 | 96075 | 87075 | 8882 | inactive |
| CG6709 + Hez | 1 | 2.00e5 | 1.62e5 | 2.55e5 | 2.11e5 | 10255 | inactive |
| CG6709 + Hez | 2 | 1.98e5 | 1.76e5 | 3.40e5 | 2.85e5 | 9990 | inactive |
| Dhfr (Dihydrofolate reductase) | 1 | 2.10e5 | 2.16e5 | 1.75e5 | 2.13e5 | 15245 | inactive |
| Pex10 (Peroxin 10) | 1 | 1.08e5 | 1.06e5 | 1.84e5 | 2.04e5 | 8175 | inactive |
| Hs3st-A (Heparan sulfate 3-O sulfotransferase-A) | 1 | 11340 | 15225 | 23625 | 27580 | 4095 | inactive |
| Hs3st-A (Heparan sulfate 3-O sulfotransferase-A) | 2 | 96845 | 79155 | 1.06e5 | 96750 | 7465 | inactive |
| Hs3st-A (Heparan sulfate 3-O sulfotransferase-A) | 3 | 74525 | 81770 | 82125 | 1.05e5 | 5815 | inactive |

Individual results from the entries so far:
Under “call”, CG5539 shows inactive
Under “induced reporter light, run 1, well a”, Gss1 + Gss2 #1 is entered as 1.21e5
Result for Prestin in “induced reporter light, run 1, well a”: 1.26e5
Result for Cpr30B (Cuticular protein 30B) under “control promoter light, run 1, well a”: 95140
Result of Cyp28a5 (Cytochrome P450 28a5) in “control promoter light, run 1, well b”: 2.99e5
galla-2, induced reporter light, run 1, well a = 1.42e5
